Over roughly 33,000 sequences, “E-score (-0.5 to 0.5)” has its median near -0.0059; the highest 2% begin near 0.26. The list shows a part of the results.

Consider 86 sequences from the supplement of paper PMC3334620.

The assay concerns the target T1, Cin5 (UniProt P40917).
T1 sequence: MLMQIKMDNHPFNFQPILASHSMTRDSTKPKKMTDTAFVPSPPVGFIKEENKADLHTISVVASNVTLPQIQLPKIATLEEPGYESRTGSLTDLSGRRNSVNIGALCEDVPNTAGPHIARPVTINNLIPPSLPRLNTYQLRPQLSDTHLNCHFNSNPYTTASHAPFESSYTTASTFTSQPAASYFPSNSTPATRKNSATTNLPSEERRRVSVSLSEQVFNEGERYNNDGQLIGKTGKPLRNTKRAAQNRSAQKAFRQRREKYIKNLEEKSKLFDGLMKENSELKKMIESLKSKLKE
Description: PBM E-score (8-mer binding enrichment) (E-score (-0.5 to 0.5)); higher = stronger / more preferred TF binding. The following applies: protein concentration: 100 nM; construct: GST-full length. The gist of the method:
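Bound GST-tagged yeast transcription factors, applied at about 100-200 nM to double-stranded universal all-10-mer Agilent arrays, were detected with fluorescent anti-GST. Scans were normalised with masliner. A modified Wilcoxon-Mann-Whitney statistic, the E-score, was assigned to each ungapped eight-base word pooled with its reverse complement by the Universal PBM Analysis Suite.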
Consider GATGGTCA, for which the “PBM E-score” value is 0.00114. With ACACGAGG the figure was -0.161; with CCGAACGC, 0.0758. Regarding AAATCAGG, the “PBM E-score” value is -0.0565. For CCAGAGGA the value was -0.156; for CGAAATCG, 0.0906; for CTTAGATC, -0.0574. For CTGAACAA the value was 0.13; for CATGGACG, -0.108; for CGCGCCGC, 0.0181. Consider CTGTGCCA, for which the “PBM E-score” value is -0.104. With CGCTCCCG the figure was -0.183.

Consider ACCAACCC, for which the “PBM E-score” value was -0.0705. For ACGTCGGA the value was -0.0968. With ACAGCTGA the figure was -0.0382; with AGAATTAT, 0.122; with AACGCGTG, 0.0107. With CTTAAAAA, the “PBM E-score” value is 0.0411.

As for CTTCCTCC, the “PBM E-score” value was -0.301. For AGGTTCAG the value was -0.0408; for AAGTCACC, -0.081. With CTAAGCTA the figure was 0.162.

With ACTGCTCC, the “PBM E-score” value was -0.0972. As to AGTCGGGC, the “PBM E-score” value was -0.0257.

Turning to GGAGCTGA, the “PBM E-score” value was -0.167. For AAGCAGTG the value was 0.116. With CGAAGCCC the figure was -0.18. Take GGCCACAA: the “PBM E-score” value is -0.0804.

For GAAACGGA, the “PBM E-score” value amounted to 0.242. CGCAGGCC: the “PBM E-score” value was -0.108. For CGCAGCGA the value was -0.0737. With CGCGCGTC the figure was 0.108; with ATTGTCGC, 0.0313. As to ATATGAGG, the “PBM E-score” value stood at 0.145.

For the sequence CCCCGCAG, the “PBM E-score” value was -0.0807. With CCTCTATA the figure was -0.0655; with ACGAAAAA, 0.0429; with CCGGCACG, -0.178. On to GGGTCCCA, for which the “PBM E-score” value was -0.158.

As to CGGCTAAG, the “PBM E-score” value was -0.025. Regarding AAAGCTAG, the “PBM E-score” value is -0.103. Consider CTCGAGGC, for which the “PBM E-score” value is 0.0186. Regarding ACTGTATG, the “PBM E-score” value was -0.0445. Turning to CGGCCAGA, the “PBM E-score” value is -0.061. With ACGGCTAG the figure was -0.254; with CCTGATGC, -0.0117. With AACCCATT, the “PBM E-score” value was 0.114.

For GGTGACTA, the “PBM E-score” value is 0.0177. With AAGAGTCG the figure was 0.0162; with AGGTGACG, -0.112.

In the case of CCCGAGAA, the “PBM E-score” value was determined as 0.101. For the sequence ATTGAACA, the “PBM E-score” value was -0.00138. For ATACCCAG, the “PBM E-score” value is -0.105.

As for GGGATCCA, the “PBM E-score” value was -0.0171. For the sequence CACGTCAC, the “PBM E-score” value came to 0.0307. For CGTGTAGA the value was -0.0283. For TGCGAGCA the value was 0.067; for CAATATAA, 0.295. For CGTACGGC, the “PBM E-score” value was -0.128. ATATAACG: the “PBM E-score” value came to 0.273. With CCCCCGGA the figure was -0.336.

As to ACCCTTAT, the “PBM E-score” value came out at 0.116. With AAAATTCG, the “PBM E-score” value amounted to 0.131. On to AATCGCGC, for which the “PBM E-score” value is 0.196. With CGCGGTGA the figure was 0.0115. On to GAAGCAAC, for which the “PBM E-score” value was determined as 0.0134. As to AACGCGTC, the “PBM E-score” value is 0.00298.

Regarding CAACAGAG, the “PBM E-score” value is 0.0156.

Take AAAACATC: the “PBM E-score” value is 0.0188.

GCGAAATA: the “PBM E-score” value was 0.0667.

As to CTGTGGGC, the “PBM E-score” value was -0.0963. For GGCACCGA the value was -0.109. As to CCATACCC, the “PBM E-score” value was -0.126. CGGAGACA: the “PBM E-score” value is -0.0102. For AGGAGGGC the value was -0.315. For CTGGGAGC the value was -0.322; for CCATTCCA, 0.0151. Regarding GATATACC, the “PBM E-score” value came out at 0.151. Consider AAACTTCC, for which the “PBM E-score” value was -0.109. On to AACGCGTT, for which the “PBM E-score” value is 0.0467. With GTTCCCCA the figure was -0.066.

In the case of TAGGAACA, the “PBM E-score” value is -0.143. For GATGTGAA the value was 0.18.

With AAACGAAA, the “PBM E-score” value was 0.191. For AAGCTCAG the value was -0.067; for TAAGCTCA, 0.135.
